Measurements reported in PubChem BioAssay AID1259424 (University of Nebraska Medical Center, 2018)

Aim: 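Seek colon cancer survival genes behaving like KSR1, using a six-gene signature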 (primary screen)
Cells: human HCT116 colon cancer cells
Reagent: siRNA pool against human genes, 50 nM
Measured: 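Six signature mRNAs by branched-DNA multiplex assay, scaled to two housekeeping genes and non-targeting median, log2; matched to mean KSR1 knockdown profile by Pearson correlation and euclidean distance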
Scale: mean correlation with KSR1 profile: higher = expression change more like KSR1 knockdown
In all, the deposit lists about 14,000 reagents; this is a part drawn at random. 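Higher correlation or smaller distance means closer resemblance to KSR1 loss; control wells, including KSR1 knockdowns, recur on many plates.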 The numbers tell different reagents against one gene apart. Further read-outs or replicates are left out here. Not given: the time to read-out.

{"Target gene": "ZWINT (GeneID 11130)", "pool no.": 1, "mean correlation with KSR1 profile": -0.683}
{"Target gene": "ACTC1 (GeneID 70)", "pool no.": 1, "mean correlation with KSR1 profile": -0.275}
{"Target gene": "CEACAM1 (GeneID 634)", "pool no.": 1, "mean correlation with KSR1 profile": 0.279}
{"Target gene": "ERVW-1 (GeneID 30816)", "pool no.": 1, "mean correlation with KSR1 profile": 0.192}
{"Target gene": "GCNT1 (GeneID 2650)", "pool no.": 1, "mean correlation with KSR1 profile": -0.545}
{"Target gene": "CCR5 (GeneID 1234)", "pool no.": 1, "mean correlation with KSR1 profile": 0.412}
{"Target gene": "DNA2 (GeneID 1763)", "pool no.": 1, "mean correlation with KSR1 profile": -0.0715}
{"Target gene": "SNTA1 (GeneID 6640)", "pool no.": 1, "mean correlation with KSR1 profile": 0.715}
{"Target gene": "CGB2 (GeneID 114336)", "pool no.": 1, "mean correlation with KSR1 profile": 0.17}
{"Target gene": "SSBP3 (GeneID 23648)", "pool no.": 1, "mean correlation with KSR1 profile": -0.677}
{"Target gene": "SEMG1 (GeneID 6406)", "pool no.": 1, "mean correlation with KSR1 profile": -0.131}
{"Target gene": "MICAL2 (GeneID 9645)", "pool no.": 1, "mean correlation with KSR1 profile": -0.705}
{"Target gene": "MICAL2 (GeneID 9645)", "pool no.": 2, "mean correlation with KSR1 profile": 0.763}
{"Target gene": "CCDC51 (GeneID 79714)", "pool no.": 1, "mean correlation with KSR1 profile": -0.0519}
{"Target gene": "WDR35 (GeneID 57539)", "pool no.": 1, "mean correlation with KSR1 profile": 0.0501}
{"Target gene": "SNX5 (GeneID 27131)", "pool no.": 1, "mean correlation with KSR1 profile": -0.332}
{"Target gene": "CGB3 (GeneID 1082)", "pool no.": 1, "mean correlation with KSR1 profile": -0.00116}
{"Target gene": "MRPL13 (GeneID 28998)", "pool no.": 1, "mean correlation with KSR1 profile": 0.0376}

Next part; the last 2 above are carried over.
{"Target gene": "CGB3 (GeneID 1082)", "pool no.": 1, "mean correlation with KSR1 profile": -0.00116}
{"Target gene": "MRPL13 (GeneID 28998)", "pool no.": 1, "mean correlation with KSR1 profile": 0.0376}
{"Target gene": "HES1 (GeneID 3280)", "pool no.": 1, "mean correlation with KSR1 profile": 0.375}
{"Target gene": "FBXL7 (GeneID 23194)", "pool no.": 1, "mean correlation with KSR1 profile": 0.00834}
{"Target gene": "RRAGA (GeneID 10670)", "pool no.": 1, "mean correlation with KSR1 profile": 0.0562}
{"Target gene": "NCDN (GeneID 23154)", "pool no.": 1, "mean correlation with KSR1 profile": -0.222}
{"Target gene": "CMA1 (GeneID 1215)", "pool no.": 1, "mean correlation with KSR1 profile": -0.0385}
{"Target gene": "GRB14 (GeneID 2888)", "pool no.": 1, "mean correlation with KSR1 profile": -0.329}
{"Target gene": "MED14 (GeneID 9282)", "pool no.": 1, "mean correlation with KSR1 profile": -0.374}
{"Target gene": "OR5F1 (GeneID 338674)", "pool no.": 1, "mean correlation with KSR1 profile": 0.548}
{"Target gene": "CTBP1 (GeneID 1487)", "pool no.": 1, "mean correlation with KSR1 profile": -0.674}
{"Target gene": "BTBD1 (GeneID 53339)", "pool no.": 1, "mean correlation with KSR1 profile": -0.462}
{"Target gene": "SCNN1G (GeneID 6340)", "pool no.": 1, "mean correlation with KSR1 profile": -0.508}
{"Target gene": "CNKSR2 (GeneID 22866)", "pool no.": 1, "mean correlation with KSR1 profile": -0.318}
{"Target gene": "PTPRK (GeneID 5796)", "pool no.": 1, "mean correlation with KSR1 profile": -0.0555}
{"Target gene": "CLN5 (GeneID 1203)", "pool no.": 1, "mean correlation with KSR1 profile": 0.222}
{"Target gene": "SLC1A1 (GeneID 6505)", "pool no.": 1, "mean correlation with KSR1 profile": -0.332}
{"Target gene": "DAZAP1 (GeneID 26528)", "pool no.": 1, "mean correlation with KSR1 profile": 0.252}
{"Target gene": "FAM186B (GeneID 84070)", "pool no.": 1, "mean correlation with KSR1 profile": 0.309}
{"Target gene": "CDAN1 (GeneID 146059)", "pool no.": 1, "mean correlation with KSR1 profile": -0.414}
